This passage reports binding results from article PMC3315512.

Chains of the proteins cited; added tags and fusions are not shown.
UniProt Q20774: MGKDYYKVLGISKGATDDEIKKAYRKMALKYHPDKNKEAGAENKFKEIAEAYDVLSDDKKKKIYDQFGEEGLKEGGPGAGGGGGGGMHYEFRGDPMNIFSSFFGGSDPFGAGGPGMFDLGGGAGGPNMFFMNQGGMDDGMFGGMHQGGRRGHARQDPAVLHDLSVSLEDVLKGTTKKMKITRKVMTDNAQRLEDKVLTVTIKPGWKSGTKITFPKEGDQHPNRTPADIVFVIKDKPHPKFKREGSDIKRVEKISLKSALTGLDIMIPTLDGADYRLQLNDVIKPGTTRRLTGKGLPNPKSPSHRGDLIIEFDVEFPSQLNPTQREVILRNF

In this assay the target is DNJ-13 (C. elegans, unlabelled) (C. elegans) (UniProt Q20774). As to the kind of experiment: AUC; unlabeled BAG-1 and unlabeled DNJ-13, each alone; molecular weight, s20,w and D20,w compared with the labelled proteins; data not shown; both purified.

These are yes or no findings as the source states them, for the method shown. Some entries that bind do so weakly or less than the wild type.

For “DNJ-13 (C. elegans, unlabelled) (from UniProt Q20774 1-331)”, the binding result is given as “binds”.
